{"source": "PubChem BioAssay AID504774 – Drosophila RNAi Screening Center, 2011", "assay": "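Genes required for cells to withstand methyl methanesulphonate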 (primary screen)", "cells": "Drosophila Kc167 cells", "knock-down reagent": "long dsRNA against Drosophila genes, about 0.25 µg dsRNA per well", "duration": "about 6 days: 3 days knock-down, then 3 days with or without MMS", "conditions": "methyl methanesulphonate 0.004% (w/v) for 3 days after knock-down", "measured": "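ATP-dependent luminescence as a measure of live cells in MMS-exposed wells, quantile normalised within each plate, with replicate values also given as a mean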", "reading the numbers": "mean viability with MMS: higher = more surviving cells after MMS", "note": "In all, the deposit lists about 23,000 reagents; shown is an unselected part of those that have a named target and a result. 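Values are quantile-normalised luminescence on an arbitrary scale; higher means more cells surviving MMS.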 Names joined by + are all predicted targets of the reagent. Not all columns of the deposit are shown. No sequences are given here."}
The opening 2 entries, ahead of the listing:
{"gene": "CG7381", "DRSC id": "DRSC16238", "mean viability with MMS": 3.69e6}
{"gene": "CG30376", "DRSC id": "DRSC05086", "mean viability with MMS": 3.47e6}

Results, from the first entry:
{"gene": "CG7381", "DRSC id": "DRSC16238", "mean viability with MMS": 3.69e6}
{"gene": "CG30376", "DRSC id": "DRSC05086", "mean viability with MMS": 3.47e6}
{"gene": "CG13693", "DRSC id": "DRSC00362", "mean viability with MMS": 3.43e6}
{"gene": "RpS29 + snoRNA:Psi18S-1275", "DRSC id": "DRSC16433", "mean viability with MMS": 2.94e6}
{"gene": "CG1750", "DRSC id": "DRSC15240", "mean viability with MMS": 3.38e6}
{"gene": "ari-1 (ariadne 1)", "DRSC id": "DRSC20308", "mean viability with MMS": 3.72e6}
{"gene": "ari-1 (ariadne 1)", "DRSC id": "DRSC21603", "mean viability with MMS": 3.71e6}
{"gene": "Six4", "DRSC id": "DRSC11881", "mean viability with MMS": 3.53e6}
{"gene": "CG14933 + CG42486", "DRSC id": "DRSC02415", "mean viability with MMS": 3.34e6}
{"gene": "CG17636", "DRSC id": "DRSC20648", "mean viability with MMS": 3.58e6}
{"gene": "CG33296", "DRSC id": "DRSC00998", "mean viability with MMS": 3.43e6}
{"gene": "CG30429", "DRSC id": "DRSC04040", "mean viability with MMS": 3.51e6}
{"gene": "CG34284", "DRSC id": "DRSC14773", "mean viability with MMS": 3.61e6}
{"gene": "Gr89a (Gustatory receptor 89a)", "DRSC id": "DRSC15023", "mean viability with MMS": 3.24e6}
{"gene": "CG11350", "DRSC id": "DRSC08181", "mean viability with MMS": 3.54e6}
{"gene": "Nlg4 (Neuroligin 4)", "DRSC id": "DRSC15108", "mean viability with MMS": 3.66e6}
{"gene": "Nlg4 (Neuroligin 4)", "DRSC id": "DRSC15109", "mean viability with MMS": 3.61e6}
{"gene": "Nlg4 (Neuroligin 4)", "DRSC id": "DRSC15700", "mean viability with MMS": 3.60e6}
{"gene": "Nlg4 (Neuroligin 4)", "DRSC id": "DRSC15701", "mean viability with MMS": 2.82e6}
{"gene": "Nlg4 (Neuroligin 4)", "DRSC id": "DRSC22243", "mean viability with MMS": 3.32e6}
{"gene": "Coq5 (Coenzyme Q5)", "DRSC id": "DRSC19849", "mean viability with MMS": 3.56e6}
{"gene": "Coq5 (Coenzyme Q5)", "DRSC id": "DRSC21371", "mean viability with MMS": 3.81e6}
{"gene": "vtd (verthandi)", "DRSC id": "DRSC20839", "mean viability with MMS": 3.54e6}
{"gene": "OtopLb (Otopetrin-like b)", "DRSC id": "DRSC00594", "mean viability with MMS": 3.30e6}
{"gene": "Gr8a (Gustatory receptor 8a)", "DRSC id": "DRSC18043", "mean viability with MMS": 3.51e6}
{"gene": "CrzR (Corazonin receptor)", "DRSC id": "DRSC09781", "mean viability with MMS": 3.47e6}
{"gene": "CrzR (Corazonin receptor)", "DRSC id": "DRSC09782", "mean viability with MMS": 3.35e6}
{"gene": "Abcd1 (ATP binding cassette subfamily D member 1)", "DRSC id": "DRSC17157", "mean viability with MMS": 3.57e6}
{"gene": "CG7896", "DRSC id": "DRSC16335", "mean viability with MMS": 3.65e6}
{"gene": "grn (grain)", "DRSC id": "DRSC12666", "mean viability with MMS": 2.80e6}
{"gene": "grn (grain)", "DRSC id": "DRSC16961", "mean viability with MMS": 3.73e6}
{"gene": "Upf2", "DRSC id": "DRSC18218", "mean viability with MMS": 3.53e6}
{"gene": "strat (stratum)", "DRSC id": "DRSC03069", "mean viability with MMS": 3.55e6}
{"gene": "PGRP-LE (Peptidoglycan recognition protein LE)", "DRSC id": "DRSC20137", "mean viability with MMS": 3.54e6}
{"gene": "CG10151", "DRSC id": "DRSC05974", "mean viability with MMS": 3.47e6}
